In doi:10.1101/789909 (bioRxiv, 2019):
Results are given in words; binding and its absence hold for the method and conditions named. In cells and extracts the contact can be indirect. Some results given as binding are weak or reduced against the parent protein; the word gives no strength. Sequences can lack the tags named with a protein.

By UniProt entry, the sequences of proteins in these tests, tags left out.
UniProt P69853, whole entry: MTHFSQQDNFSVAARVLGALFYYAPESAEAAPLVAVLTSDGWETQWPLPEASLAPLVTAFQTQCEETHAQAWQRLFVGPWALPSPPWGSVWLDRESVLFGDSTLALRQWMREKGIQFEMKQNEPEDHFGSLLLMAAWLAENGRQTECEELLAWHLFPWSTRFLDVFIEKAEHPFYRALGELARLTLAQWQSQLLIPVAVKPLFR

Target: DmsD with 6xHis tag (E. coli) (UniProt P69853)
Experiment: pull-down

B1: EcTatBC without 6xHis tag (complex of TatB and TatC) (complex, UniProt P69425 1-171; P69423 1-258)
chain 1: MFDIGFSELLLVFIIGLVVLGPQRLPVAVKTVAGWIRALRSLATTVQNELTQELKLQEFQDSLKKVEKASLTNLTPELKASMDELRQAAESMKRSYVANDPEKASDEAHTIHNPVVKDNEAAHEGVTPAAAQTQASSPEQKPETTPEPVVKPAADAEPKTAAPSPSSSDKP
chain 2: MSVEDTQPLITHLIELRKRLLNCIIAVIVIFLCLVYFANDIYHLVSAPLIKQLPQGSTMIATDVASPFFTPIKLTFMVSLILSAPVILYQVWAFIAPALYKHERRLVVPLLVSSSLLFYIGMAFAYFVVFPLAFGFLANTAPEGVQVSTDIASYLSFVMALFMAFGVSFEVPVAIVLLCWMGITSPEDLRKKRPYVLVGAFVVGMLLTPPDVFSQTLLAIPMYCLFEIGVFFSRFYVGKGRNREEENDAEAESEKTEE
B1 was tested, and the binding was “binds”.
